Measurements reported in the supplement of paper PMC10338343.
± gives the standard deviation. The entries are a selection whose mix differs from that of the whole data set. The uncertainty is large for many entries.

How the values were obtained:
[1] = tested on: MILI (PIWIL2) piRISC loaded with piRNA #1 (26 nt); experiment: pre-steady-state target cleavage rate (min^-1); higher = faster piRNA-guided slicing of the target; conditions: guide: piRNA #1 5'p-UGAGGUAGUAGGUUGUAUAGUAUCCA; auxiliary factor: 500 nM mouse GTSF1;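 note: 1 nM active piRISC with 0.1 nM target library at 33 °C single turnover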
Method in brief: (§1)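 A transcribed, DNA-blocked target RNA library […] was incubated at 33 °C for 0–8 or 0–960 min with 1 nM active affinity-purified piRISC carrying one synthetic guide, in HEPES–potassium acetate buffer with or without 500 nM GTSF1 partner protein. Uncleaved targets were then sequenced and normalised to depth and to weakly complementary targets. Data from three trials were pooled, with k3 capped at 0.0001 min^-1, and a burst-and-steady-state fit yielded the pre-steady-state cleavage rate.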

[2] = tested on: EfPiwi piRISC loaded with piRNA #1 (26 nt); experiment: pre-steady-state target cleavage rate (min^-1); guide: piRNA #1 5'p-UGAGGUAGUAGGUUGUAUAGUAUCCA; MIWI and MILI are mouse PIWI proteins and EfPiwi is from a freshwater sponge; tags in brackets are library labels; higher = faster piRNA-guided slicing of the target; conditions: auxiliary factor: 500 nM Ephydatia muelleri Gtsf1
Method in brief: as §1

Row | Sequence | pre-steady-state target cleavage rate [1] | pre-steady-state target cleavage rate [2]
1 | GGAGACCUAUGAUAUGUUGCCUACUACCUCA | 0.000112 ± 0.033 | 0.0011 ± 0.0059
2 | GGAGACCUAUCUAUACAACCUUCUACCUGA | 0.00188 ± 0.0039 | 0.00288 ± 0.005
3 | GGAGACCUUACUAUACAUCCUACUACCUCA | 0.292 ± 0.024 | 0.00607 ± 0.0029
4 | GGAGACCUAUGAUAUCAACCUACUUCCACA | 0.000175 ± 0.018 | < 0.0001
5 | GGAGACCUAUGUAUACAACCAUGAUGGAGA [g11:g19:cont:t1A] | 0.000486 ± 0.0098 | 0.00131 ± 0.0058
6 | GGAGACCUAUGAUAUGUACCUACUAGGAGA [g6:g13:cont:t1A] | 0.000216 ± 0.019 | 0.000342 ± 0.0099
7 | GGAGACAAUACUAUACAACCUACUACCUCA | 0.253 ± 0.021 | 0.0606 ± 0.023
8 | GGAGAGGAUACUAUACAACCUUCUACCUGA | 0.00153 ± 0.0034 | 0.00393 ± 0.0023
9 | GGAGACCUUACUAUACAACCUACUUCGUCA | 0.0614 ± 0.015 | 0.00408 ± 0.0044
10 | GGAGACCUAACUAUACAACCUACUAGGAGA [g6:g21:cont:t1A] | 0.00403 ± 0.0045 | 0.00242 ± 0.0058
11 | GGAGACGAUACUAUUGAACCUACUACCUCA | 0.157 ± 0.016 | 0.00145 ± 0.0035
12 | GGAGACCUAACUAUACAACCUACAACGUCA | 0.00458 ± 0.0063 | 0.000862 ± 0.0091
13 | GGAGACCAUACGUAUACAACCUACUACCUCA | 0.212 ± 0.035 | 0.159 ± 0.064
14 | GGAGUGGAUACAAUAGAACCUACUACCUCA | 0.163 ± 0.009 | 0.00115 ± 0.0028
15 | GGAGACCUUACUAUACAACCUUCUACGUCA | 0.00198 ± 0.0044 | 0.00265 ± 0.003

Single records, as listed above. Values in the order: pre-steady-state target cleavage rate [1] | pre-steady-state target cleavage rate [2]
GGAGACCUAUGUAUACAACCAUGAUGGAGA [g11:g19:cont:t1A] reads 0.000486 ± 0.0098 | 0.00131 ± 0.0058
GGAGACCUAACUAUACAACCUACAACGUCA reads 0.00458 ± 0.0063 | 0.000862 ± 0.0091
